Laboratory results: PubChem BioAssay AID624291 (National Center for Advancing Translational Sciences (NCATS), 2012)
Out of some 350,000 compounds screened, about 220 (0.063%) were called active. Inconclusive results, whose numbers are uncertain, are shown with a selection of clear calls. Calls come from the whole dose curve; as a rule, active = well fitted activation curve with a large enough effect; inconclusive = small, poorly fitted or top-dose-only effect; inactive = no such curve, though single readings can be large or run the other way. Where the call is inconclusive, the potency comes from a doubtful curve fit.

experiment: qHTS for Activators of Integrin-Mediated Alleviation for Muscular Dystrophy; conditions: alpha7betagal myoblasts, beta-gal FDG fluorescence, 48 h; activation: at 38.3 µM (top of the series); note: nearly all actives have a fitted effect of over 60% in size;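 for activation: 100% = response of the positive control SU9516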
How it was run: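 Alpha7betagal+/- myoblasts (passage 13) were plated 16-24 hr, then exposed to compounds (1:260 dilution of DMSO stock) for 48 hours at 37C. After MPER lysis, β-galactosidase reporter activity was read as FDG fluorescence (ex 480/em 540) after 30 minutes.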
Potency is the fitted concentration of half-maximal effect.

SMILES | Potency | activation
CCc1ccc(NC(=O)C2CCCN(S(=O)(=O)c3ccc4[nH]c(=O)ccc4c3)C2)cc1 (centres undefined) | inconclusive: 3.55 µM [activator, single point] | –
C/C(=N\NC(=O)c1ccc(C)cc1C)c1ccc(-n2ccnc2)cc1 | inactive | –
Cc1c(C(=O)OCc2ccccc2)[nH]c2c1C(=O)CC(c1ccco1)C2 (centres undefined) | inconclusive: 2.24 µM [activator, partial curve, poor fit] | –
Cc1ccc(NC(=O)c2cccc(C(=O)OC(C)C)n2)c(Br)c1 | inconclusive: 4.47 µM [activator, single point] | –
COC(=O)Cc1[nH]nc2c1C(c1cc(OC)c(OC)c(OC)c1)C(C#N)=C(N)O2 (centres undefined) | inconclusive: 0.501 µM [activator, full curve, poor fit] | –
CC(Oc1ccc(C(C)(C)C)cc1)c1ccnc2nc(/N=C/N(C)C)nn12 (centres undefined) | inactive | –
O=C(O)Cc1nc(-c2cccnc2)sc1-c1ccc(Br)cc1 | inconclusive: 25.1 µM [activator, partial curve, poor fit] | –
C=CCOc1ccc(CNc2ccc(NC(=O)CCC)cc2)cc1OCC | inconclusive: 20 µM [activator, single point] | –
CC[C@@H](C)[C@@H](C(=O)N1CCN(C(=O)OC(C)(C)C)CC1)n1cc(CCCCNC(=O)OC(C)(C)C)nn1 | inactive | –
CSc1nc2nc(C)cc(-c3ccccc3)n2n1 | inactive | –
CCOc1ccccc1NC(=S)NC(=O)CCCOc1ccc(Cl)cc1Cl | inactive | –
C=CCn1c(SCc2csc(C)n2)nc2sc3c(c2c1=O)CCCC3 | inactive | –
CCN(CC)S(=O)(=O)c1cc(NC(=O)c2ccc(Br)s2)ccc1C | inconclusive: 5.01 µM [activator, single point] | –
O=C(COc1cc2oc(=O)c3c(c2cc1Cl)CCC3)NCC1CCC(C(=O)O)CC1 (centres undefined) | inconclusive: 5.01 µM [activator, single point] | –
N/C(=N\OC(=O)c1ccc2ccccc2c1)c1ccncc1 | inconclusive: 4.47 µM [activator, single point] | –
C=CCS/C(N)=N\N=C\c1cc(Br)cc([N+](=O)[O-])c1O | inactive | –
CCN(CC)S(=O)(=O)c1ccc(C(=O)NC2=NCCS2)cc1 | inconclusive: 28.2 µM [activator, single point] | –
O=C1Nc2ccc(S(=O)(=O)N3CCCC3C(=O)O)c3cccc1c23 (centres undefined) | inconclusive: 10 µM [activator, partial curve, poor fit] | –
CC1CCc2c(C(=O)Nc3cccc(-c4nn[nH]n4)c3)csc2C1 (centres undefined) | inconclusive: 1.78 µM [activator, partial curve, poor fit] | –
CCN(CC)C(=O)CCc1nnc(CCc2c[nH]c3ccccc23)o1 | inconclusive: 10 µM [activator, single point] | –
Cc1cc(C)n2nc(C(=O)OCC(=O)Nc3cc(Cl)ccc3C)nc2n1 | inconclusive: 22.4 µM [activator, single point] | –
Cc1ccc(NS(=O)(=O)c2ccc3c(c2)NC(=O)CCS3)c(Cl)c1 | inconclusive: 28.2 µM [activator, partial curve, poor fit] | –

Compounds listed so far that have a tert-butyl group:
SMILES | Potency | activation
CC(Oc1ccc(C(C)(C)C)cc1)c1ccnc2nc(/N=C/N(C)C)nn12 (centres undefined) | inactive | –
CC[C@@H](C)[C@@H](C(=O)N1CCN(C(=O)OC(C)(C)C)CC1)n1cc(CCCCNC(=O)OC(C)(C)C)nn1 | inactive | –

(list continues)

SMILES | Potency | activation
CC(=O)c1ccc(N(C)C)c2c(N(C)C)cccc12 | inconclusive: 5.01 µM [activator, single point] | –
Cc1ccccc1Nc1nc(N2CCOCC2)nc(N2CCOCC2)n1 | – | inconclusive: 30.1% [activator]
N=C1CCCN1c1ccccc1O | inactive | –
CCCCn1c(SCC(=O)c2cc(OC)ccc2OC)nc2cc(S(N)(=O)=O)ccc21 | inactive | –
O=C(c1ccco1)N1CCN(Cc2nnc(-c3cccc(Br)c3)o2)CC1 | inactive | –
COc1cccc(C(=O)Nc2ccc3nc(N4CCOCC4)cc(C)c3c2)c1 | inactive | –
COC(=O)c1ccc(CSc2ccc3nnc(-c4ccc(F)cc4)n3n2)o1 | inconclusive: 11.2 µM [activator, partial curve, poor fit] | –
O=C(Nc1ccc(Cl)c(Cl)c1)Nc1nnc(CC2=CCCCC2)s1 | inconclusive: 3.16 µM [activator, single point] | –
CC(CCc1ccco1)NC(=O)CCc1nnc2ccc(NCc3ccc(Cl)cc3)nn12 (centres undefined) | inconclusive: 1.58 µM [activator, single point] | –
Cc1ccc(S(=O)(=O)Nc2cccc(C(=O)NCC3(N4CCCCC4)CCCCC3)c2)cc1F | inactive | –
C=CCNCCOc1ccc(C)cc1[N+](=O)[O-] | inconclusive: 6.31 µM [activator, partial curve, poor fit] | –
Cc1cc(OCC(=O)NC2CC2)c2c(C)c(C)c(=O)oc2c1 | inconclusive: 14.1 µM [activator, single point] | –
COc1ccccc1N(C)S(=O)(=O)c1ccc(C(=O)NC2CCCCC2)cc1 | inconclusive: 28.2 µM [activator, single point] | –
CCN(CC)C(=S)SC1CCCCN(C(=O)c2ccccc2)C1=O (centres undefined) | inconclusive: 0.501 µM [activator, full curve, poor fit] | –
Cc1noc(C(=O)N(C)c2ccccc2)c1Cl | inconclusive: 2.82 µM [activator, single point] | –
Cc1ccc(C(=O)N2CCN(c3ccc(NC(=O)COc4ccccc4C)cc3)CC2)cc1 | inconclusive: 5.01 µM [activator, single point] | –
CC(C)C(=O)Nc1nc2cc3c(cc2s1)OCCO3 | inconclusive: 5.01 µM [activator, single point] | –
O=S(=O)(Nc1ccc2c(c1)nc1n2CCN(Cc2ccccc2)C1)c1ccccc1 | inactive | –
CCC(C)c1ccccc1NC(=O)c1cccc(-n2cnnn2)c1 (centres undefined) | inconclusive: 5.62 µM [activator, partial curve, poor fit] | –
CC(=C\c1ccccc1)/C=C1/SC(=S)N(CCC(=O)O)C1=O | inconclusive: 2.82 µM [activator, partial curve, poor fit] | –
O=C1c2ccccc2C(=O)C1c1ccccc1F | inconclusive: 5.01 µM [activator, partial curve] | –
CNCc1ccccc1OCC(=O)Nc1ccccc1 | inactive | –
